Experimental data as given in patent publication US11395847B2 (Zealand Pharma A/S, priority 2016, dated 2022).
*1 amine or outer side, *2 acyl side, *3 side chain or, on linkers, in order; H or OH if unused. Side-chain parts run from the residue outwards. [ ]: non-standard residue; d: D form. The star is where a group is joined. C18 diacid = O=C(O)CCCCCCCCCCCCCCCCC(=O)*; γGlu = O=C(O)[C@H](CCC(=O)[*:2])N[*:1]; Aib = CC(C)(N)C(=O)O

Tests used:
[1] = general procedure: Fmoc solid-phase peptide synthesis; TentaGel (TentaGel S PHB Asp(tBu)Fmoc, 0.23 mmol/g); settings: whole synthesis; for final HPLC purity: HPLC and MS; for crude purity (method not given): analytical HPLC and MS
[2] = general procedure: Fmoc solid-phase peptide synthesis; TENTAGEL S PHB Asp(tBu)Fmoc; settings: whole synthesis, 0.23 mmol/g

Row | Substance | final HPLC purity [1] [%] | crude purity (method not given) [1] | crude mass ([2]; scale 1.15 g) [mg] | crude mass ([2]; scale 1.20 g) [mg]
1 | H-H[Aib]EGTFSSELATILDK([γGlu-C18 diacid])EAARDFIAWLIEHKITD-OH | 91 | ˜40% | 1100 | –
2 | H-H[Aib]EGTFSSELATILDK([γGlu-C18 diacid])KAARDFIAWLIEHKITD-OH | 91 | ˜35% | – | 900
